# Results taken from patent US10067136B1, “Photoactivatable probes and uses thereof” (University of South Florida, priority 2016, dated 2018).
# Some results were stated once for a whole list of compounds, not compound by compound.
# Test: Aqueous solubility measurement (HPLC-MS method)
# Assay type: physicochemical
# Details: pH 7.4 and 5.0, phosphate buffer
Structure (SMILES),aqueous solubility relative to conventional 3-trifluoromethyl-3-phenyl-diazirines 14 and 17 (pyridyl probes),aqueous solubility relative to conventional 3-trifluoromethyl-3-phenyl-diazirines 14 and 17 (pyrimidinyl probes)
"FC(F)(F)C1(c2ccc(COc3ccnc4ccccc34)nc2)N=N1 [compound 18, 4-((5-(3-(trifluoromethyl)-3H-diazirin-3-yl)pyridin-2-yl)methoxy)quinoline]",30-250 fold,
"CC(=O)N[C@@H](Cc1c[nH]c2ccccc12)C(=O)OCc1ncc(C2(C(F)(F)F)N=N2)cn1 [compound 16, (S)-(5-(3-(trifluoromethyl)-3H-diazirin-3-yl)pyrimidin-2-yl)methyl 2-acetamido-3-(1H-indol-3-yl)propanoate]",,"100-7,500 times"
"FC(F)(F)C1(c2cnc(COc3ccnc4ccccc34)nc2)N=N1 [compound 19, 4-((5-(3-(trifluoromethyl)-3H-diazirin-3-yl)pyrimidin-2-yl)methoxy)quinoline]",,"100-7,500 times"
"CC(=O)N[C@@H](Cc1c[nH]c2ccccc12)C(=O)OCc1ccc(C2(C(F)(F)F)N=N2)cn1 [compound 15, (S)-(5-(3-(trifluoromethyl)-3H-diazirin-3-yl)pyridin-2-yl)methyl 2-acetamido-3-(1H-indol-3-yl)propanoate]",30-250 fold,
